Results from patent US20200071417A1.
These are yes or no findings as the source states them, for the method shown. Some entries that bind do so weakly or less than the wild type.

Sequences of proteins named here, by UniProt entry; tags and fusion partners are left off. A change or cut given only in a name is not applied to a line headed by its entry.
UniProt P51683: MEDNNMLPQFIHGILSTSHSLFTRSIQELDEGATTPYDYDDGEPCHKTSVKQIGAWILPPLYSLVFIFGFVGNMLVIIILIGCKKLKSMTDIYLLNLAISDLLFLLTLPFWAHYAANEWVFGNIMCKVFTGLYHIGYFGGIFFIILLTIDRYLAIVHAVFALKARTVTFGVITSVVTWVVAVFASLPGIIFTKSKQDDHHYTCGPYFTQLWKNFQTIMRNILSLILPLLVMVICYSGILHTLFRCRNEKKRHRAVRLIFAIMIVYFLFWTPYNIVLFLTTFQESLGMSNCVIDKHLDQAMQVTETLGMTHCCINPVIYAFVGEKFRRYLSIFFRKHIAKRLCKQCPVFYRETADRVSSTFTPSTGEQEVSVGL
UniProt P09581: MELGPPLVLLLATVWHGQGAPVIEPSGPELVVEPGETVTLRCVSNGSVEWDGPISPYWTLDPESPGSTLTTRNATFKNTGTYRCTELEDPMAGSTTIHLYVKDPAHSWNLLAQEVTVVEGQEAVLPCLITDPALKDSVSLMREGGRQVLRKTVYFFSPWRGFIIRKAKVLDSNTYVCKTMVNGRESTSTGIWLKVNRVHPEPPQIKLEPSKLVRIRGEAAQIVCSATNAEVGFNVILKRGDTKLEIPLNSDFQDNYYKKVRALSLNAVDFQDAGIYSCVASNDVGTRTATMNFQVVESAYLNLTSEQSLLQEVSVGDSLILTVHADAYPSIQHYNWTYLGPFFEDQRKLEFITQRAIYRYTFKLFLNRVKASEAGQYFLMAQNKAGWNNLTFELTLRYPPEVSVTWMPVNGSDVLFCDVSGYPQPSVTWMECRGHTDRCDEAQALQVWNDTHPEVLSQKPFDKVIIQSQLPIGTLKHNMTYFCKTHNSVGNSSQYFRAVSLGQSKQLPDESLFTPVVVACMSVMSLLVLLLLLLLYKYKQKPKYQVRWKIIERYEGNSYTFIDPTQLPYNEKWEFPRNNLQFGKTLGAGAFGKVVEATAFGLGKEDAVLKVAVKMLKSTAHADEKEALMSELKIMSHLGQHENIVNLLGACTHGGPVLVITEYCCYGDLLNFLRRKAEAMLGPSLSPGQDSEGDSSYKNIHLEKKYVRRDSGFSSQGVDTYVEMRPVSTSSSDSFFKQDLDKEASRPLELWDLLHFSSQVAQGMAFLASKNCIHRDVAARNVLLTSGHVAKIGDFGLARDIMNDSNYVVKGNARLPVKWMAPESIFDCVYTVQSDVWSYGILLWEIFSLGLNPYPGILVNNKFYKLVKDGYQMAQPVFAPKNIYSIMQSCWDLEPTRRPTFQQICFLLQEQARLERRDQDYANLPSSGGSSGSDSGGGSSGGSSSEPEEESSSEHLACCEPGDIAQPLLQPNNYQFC

Molecular target: mouse CCR2 and mouse CSF1R co-expressed on the same ExpiCHO cells (mouse) (UniProt P51683+P09581)
Assay: flow cytometry on transiently transfected ExpiCHO cells

- binding: binds
B1: UniTI-01 (multispecific molecule #1), anti-CCR2/anti-CSF1R bispecific antibody (bispecific antibody)
heavy 1: QVQLQESGPGLVQPSQTLSLTCTVSGFSLTDFSVHWVRQPPGKGLEWMGRIRSEGNTDYNSALKSRLSISRDTSKSQVFLKMNSLQTEDTAIYFCTRGDILGFGYWGQGVMVTVSSAQTTAPSVYPLAPGCGDTTSSTVTLGCLVKGYFPEPVTVTWNSGALSSDVHTFPAVLQSGLYTLTSSVTSSTWPSQTVTCNVAHPASSTKVDKKVERRTIKPCPPCKCPAPNLLGGPSVFIFPPKIKDVLMISLSPIVTCVVVDVSEDDPDVQISWFVNNVEVHTAQTQTHREDYNSTLRVVSALPIQHQDWMSGKEFKCKVNNKDLPAPIERTISKPKGSVRAPQVYVLPPCEEEMTKKQVTLWCMVTDFMPEDIYVEWTNNGKTELNYKNTEPVLDSDGSYFMYSKLRVEKKNWVERNSYSCSVVHEGLHNHHTTKSFSRTPGK
light 1: DIVMTQSPLSVSVTPGESASISCRSSKSLLHFKGITFVYWYLQKPGQSPQLLIFRMSSLASGVPDRFSGSGSETDFTLKISRVEAEDVGTYYCGQLLENPYTFGAGTKLELKRADAAPTVSIFPPSMEQLTSGGATVVCFVNNFYPRDISVKWKIDGSEQRDGVLDSVTDQDSKDSTYSMSSTLSLTKVEYERHNLYTCEVVHKTSSSPVVKSFNRNEC
heavy 2: QVQLQQSGAELVKPGSSVKISCKASGYTFTSNFMHWIKQQPGNGLEWIGWIYPGDGDTEYNQKFNGKATLTADKSSSTAYMQLSSLTSEDSAVYFCAVNYGGYVLDAWGQGASVTVSSAETTAPSVYPLAPGTALKSNSMVTLGCLVKGYFPEPVTVTWNSGALSSGVHTFPAVLQSGLYTLTSSVTVPSSTWSSQAVTCNVAHPASSTKVDKKIVPRECNTIKPCPPCKCPAPNLLGGPSVFIFPPKIKDVLMISLSPIVTCVVVDVSEDDPDVQISWFVNNVEVHTAQTQTHREDYNSTLRVVSALPIQHQDWMSGKEFKCKVNNKDLPAPIERTISKPKGSVRAPQVCVLPPPEEEMTKKQVTLSCAVTDFMPEDIYVEWTNNGKTELNYKNTEPVLDSDGSYFMVSKLRVEKKNWVERNSYSCSVVHEGLHNHHTTKSFSRTPGK
light 2: EIVLTQSPTTMAASPGEKVTITCRASSSTNYMSWYQQKSGASPKPWIYETSKLASGVPDRFSGSGSGTSYSFTISSMETEDAATYYCHQWSSTPLTFGSGTKLEIKRADAAPTVSIFPPSMEQLTSGGATVVCFVNNFYPRDISVKWKIDGSEQRDGVLDSVTDQDSKDSTYSMSSTLSLTKVEYERHNLYTCEVVHKTSSSPVVKSFNRNEC
